Experimental data reported in PubChem BioAssay AID588590 (National Center for Advancing Translational Sciences (NCATS), 2011).
Out of some 390,000 compounds screened, about 4,000 (1%) were called active. Inconclusive means that the source gave no clear call. Such entries were picked first, then a sample of the others. Calls come from the whole dose curve; as a rule, active = well fitted inhibition curve with a large enough effect; inconclusive = small, poorly fitted or top-dose-only effect, or another doubt; inactive = no such curve, though single readings can be large or run the other way. Where the call is inconclusive, the potency comes from a doubtful curve fit.

The chains behind the UniProt entries cited, without tags or fusion partners. Where a name states a change or a piece, a line headed by the entry shows the natural chain unless it says otherwise.
UniProt Q9UNA4: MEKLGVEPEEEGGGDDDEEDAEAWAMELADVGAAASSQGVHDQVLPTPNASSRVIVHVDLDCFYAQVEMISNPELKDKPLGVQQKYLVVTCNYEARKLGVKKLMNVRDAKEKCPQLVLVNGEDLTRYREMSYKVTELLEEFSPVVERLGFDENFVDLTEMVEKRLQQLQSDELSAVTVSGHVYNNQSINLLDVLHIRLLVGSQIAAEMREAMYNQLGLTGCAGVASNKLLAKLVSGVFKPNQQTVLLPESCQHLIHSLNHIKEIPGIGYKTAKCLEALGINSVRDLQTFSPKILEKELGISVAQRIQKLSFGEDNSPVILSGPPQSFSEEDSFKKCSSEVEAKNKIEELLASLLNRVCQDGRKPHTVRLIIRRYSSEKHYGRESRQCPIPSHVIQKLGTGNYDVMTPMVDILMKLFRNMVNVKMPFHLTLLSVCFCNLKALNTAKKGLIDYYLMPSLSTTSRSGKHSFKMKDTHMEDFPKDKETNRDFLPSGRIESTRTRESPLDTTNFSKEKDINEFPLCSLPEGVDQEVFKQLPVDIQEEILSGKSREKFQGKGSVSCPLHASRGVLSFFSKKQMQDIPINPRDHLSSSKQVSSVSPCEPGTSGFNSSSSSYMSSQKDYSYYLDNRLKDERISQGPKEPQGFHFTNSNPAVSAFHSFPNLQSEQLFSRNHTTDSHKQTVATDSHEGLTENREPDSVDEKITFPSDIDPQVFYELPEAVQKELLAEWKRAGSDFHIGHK

Target: DNA polymerase iota (Homo sapiens) (UniProt Q9UNA4)
Experiment: qHTS for Inhibitors of Polymerase Iota
Conditions: Pol iota fluorescent replication assay, 10 min; series mostly up to 115 µM
Procedure, shortened: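 Pol iota at 10 nM preincubated 15 min with compounds at room temperature; reaction started with fluorescent substrate, 50 nM final. Fluorescence read kinetically at 0 and 10 min; buffer-only wells as negative control.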
Potency is the fitted concentration of half-maximal effect.

Potency, inactive:
O=C(Cc1ccc(Br)cc1)N/N=C/c1ccc(-c2cccc(C(=O)O)c2)o1, Cc1[nH]n(-c2ccccc2)c(=O)c1C=NCCc1ccccc1, COCCn1c(C)cc(O)c(C(c2ccccc2)N2CCC(C)CC2)c1=O (stereo not drawn), CC1(C)Nc2cccc3c(N=Nc4ccc(N=Nc5ccccc5)c5ccccc45)ccc(c23)N1, COc1ccc(C(=O)NCCn2cc(SCc3cccc(F)c3)c3ccccc32)cc1OC, O=C1N=C(N2CCCCC2)SC1=C1CCCCC1, Nc1nc(NCC2CCCO2)nc(NCC2CCCO2)c1[N+](=O)[O-] (stereo not drawn)

Potency, inconclusive:
NS(=O)(=O)c1ccc(CNC(=O)c2cc(-c3cccs3)nc3ccccc23)cc1 35.5 µM [inhibitor, partial curve], COc1ccc(/C=C/C2=NC(=C\N(C)C)/C(=O)O2)cc1 12.6 µM [inhibitor, partial curve, poor fit], Cc1ccc([N+](=O)[O-])cc1NC(=O)c1ccc(CSc2ccccc2)cc1 79.4 µM [inhibitor, partial curve, poor fit], Cc1ccc(-n2ncc3c(N4CCN(c5ccccc5)CC4)ncnc32)cc1C 89.1 µM [inhibitor, single point], C#CCOCCOCCOCCNc1nc(N2CCN(C(=O)[C@H](C)n3cc(CCC(=O)O)nn3)CC2)nc(N2CCN(C(=O)[C@H](Cc3ccc(O)cc3)n3cc(CCO)nn3)CC2)n1 22.4 µM [inhibitor, full curve, poor fit], CC(/C=N/n1c(-c2cccnc2)n[nH]c1=S)=C\c1ccco1 25.1 µM [inhibitor, partial curve, poor fit], Cc1cc([N+](=O)[O-])cc2c1NC(=O)C2(O)N1CCOCC1 (stereo not drawn) 39.8 µM [inhibitor, single point], COc1ccc(CCNC(=O)C(=O)NCC2OCCN2S(=O)(=O)c2ccccc2)cc1OC (stereo not drawn) 79.4 µM [inhibitor, partial curve], O=C(NC1CCN(C(=O)N2c3ccccc3Sc3ccccc32)CC1)c1ccccc1Cl 56.2 µM [inhibitor, single point], Cc1ccc(S(=O)(=O)/N=C2/NC(=O)/C(=C/c3ccc(Br)o3)S2)cc1 63.1 µM [inhibitor, partial curve, poor fit], CCN(CC(=O)Nc1ccccc1C(F)(F)F)C(=O)CN1C(=O)NC2(CCCC2)C1=O 12.6 µM [inhibitor, partial curve, poor fit], COc1cc2ccccc2cc1C(=O)OCC(=O)N(CC(C)C)c1c(N)n(Cc2ccccc2)c(=O)[nH]c1=O 39.8 µM [inhibitor, single point], COc1ccc2c(c1)n([O-])c1c([n+]2=O)CCC1 44.7 µM [inhibitor, partial curve], CC(C)C[C@@H](CNCC(=O)[C@H](Cc1c[nH]c2ccccc12)NC(=O)c1[nH]cnc1C(=O)N[C@@H](C)CN)NC(=O)c1nc[nH]c1C(=O)N[C@@H](CC(=O)O)C(=O)O 11.2 µM [inhibitor, partial curve, poor fit], CCCN(CCC)CCNC(=O)Cn1cnc2sc(C)c(S(=O)(=O)N3CCC(C)CC3)c2c1=O 25.1 µM [inhibitor, single point], CN(C)c1cc(-c2ccc(Cl)cc2Cl)oc(=O)c1Cl 8.91 µM [inhibitor, full curve, poor fit], c1ccc(N2CCN(c3ccc4nncn4n3)CC2)nc1 100 µM [inhibitor, single point], COc1cc(/C=C2\C(=N)N3N=C(C)SC3=NC2=O)cc(OC)c1OCCOc1ccccc1C 28.2 µM [inhibitor, partial curve, poor fit], O=C(O)C1C2C=CC(O2)C1C(=O)NCCC1=CCCCC1 (stereo not drawn) 39.8 µM [inhibitor, single point], CCOC(=O)c1sc(NC(=O)COc2ccc3c(c2)OCO3)nc1C 31.6 µM [inhibitor, single point], CCOC(=O)CSC1=C(C#N)C(=O)NC(c2ccc(OC)c(OC)c2)S1 (stereo not drawn) 39.8 µM [inhibitor, single point], CC(=O)OCC1=C(C(=O)O)N2C(=O)C(NC(=O)c3ccc(F)cc3)C2SC1 (stereo not drawn) 20 µM [inhibitor, full curve], CCOC(=O)c1c(NC(=O)CSc2nnc3ccccn23)sc2c1CCC2 89.1 µM [inhibitor, single point], Cc1nn(-c2ccccc2)c(N)c1Sc1cccc([N+](=O)[O-])c1 39.8 µM [inhibitor, single point], COc1ccccc1-c1noc(-c2ccc(N3CCOCC3)c([N+](=O)[O-])c2)n1 31.6 µM [inhibitor, partial curve, poor fit], CC(C)C(C)NC(=O)CSc1nc2scc(-c3ccco3)c2c(=O)n1-c1ccccc1 (stereo not drawn) 22.4 µM [inhibitor, partial curve, poor fit], COC(=O)c1cc(NC(=O)Nc2ccc3snnc3c2)cc(C(=O)OC)c1 89.1 µM [inhibitor, partial curve, poor fit], Cc1ccc(C(=O)NCCc2c[nH]c3ccccc23)c(C)c1 79.4 µM [inhibitor, single point], NS(=O)(=O)c1ccc(NC(=O)c2cnn3c2NC(=C2CC2)C=C3C(F)F)cc1 100 µM [inhibitor, single point]

Potency, active:
O=C(O)c1ccc(S(=O)(=O)Nc2ccc(O)c(Sc3nc4ccccc4s3)c2)cc1 15.8 µM, Cc1ccc(NC(=O)c2cc(-c3ccc(C)o3)nc3ccccc23)nc1 20 µM
